The target of this assay is T1, Smc1-TAP (wild-type Smc1) (S. cerevisiae) (UniProt P32908).
T1 sequence: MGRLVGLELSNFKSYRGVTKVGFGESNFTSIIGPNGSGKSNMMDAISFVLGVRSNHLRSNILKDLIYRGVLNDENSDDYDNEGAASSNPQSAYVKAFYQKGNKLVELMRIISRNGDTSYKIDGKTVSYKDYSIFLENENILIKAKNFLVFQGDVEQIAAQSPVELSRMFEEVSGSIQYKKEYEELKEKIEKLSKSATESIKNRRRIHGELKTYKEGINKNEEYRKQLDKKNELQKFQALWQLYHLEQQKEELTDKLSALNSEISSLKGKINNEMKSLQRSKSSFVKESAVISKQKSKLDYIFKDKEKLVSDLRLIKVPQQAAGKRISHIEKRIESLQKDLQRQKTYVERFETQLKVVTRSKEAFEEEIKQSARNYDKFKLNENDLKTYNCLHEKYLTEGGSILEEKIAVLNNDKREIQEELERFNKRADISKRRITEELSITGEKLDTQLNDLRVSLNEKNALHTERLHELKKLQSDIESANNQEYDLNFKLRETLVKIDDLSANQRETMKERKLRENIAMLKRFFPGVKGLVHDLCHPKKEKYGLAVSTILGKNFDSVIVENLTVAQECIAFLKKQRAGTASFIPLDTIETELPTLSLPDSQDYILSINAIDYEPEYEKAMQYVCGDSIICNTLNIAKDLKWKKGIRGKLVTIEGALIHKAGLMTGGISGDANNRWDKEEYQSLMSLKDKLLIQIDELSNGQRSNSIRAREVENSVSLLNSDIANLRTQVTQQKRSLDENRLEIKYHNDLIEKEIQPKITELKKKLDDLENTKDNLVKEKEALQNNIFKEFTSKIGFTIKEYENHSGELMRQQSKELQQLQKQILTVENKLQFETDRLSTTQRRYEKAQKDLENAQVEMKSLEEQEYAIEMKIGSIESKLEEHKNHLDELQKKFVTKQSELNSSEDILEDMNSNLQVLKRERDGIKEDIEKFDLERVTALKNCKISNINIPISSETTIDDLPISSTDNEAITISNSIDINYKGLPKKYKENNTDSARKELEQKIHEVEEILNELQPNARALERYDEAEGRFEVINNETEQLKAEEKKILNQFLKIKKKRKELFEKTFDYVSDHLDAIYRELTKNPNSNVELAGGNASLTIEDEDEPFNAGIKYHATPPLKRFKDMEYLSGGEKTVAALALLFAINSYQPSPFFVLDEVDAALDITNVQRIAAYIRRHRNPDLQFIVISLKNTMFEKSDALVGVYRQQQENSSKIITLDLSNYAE
Kind of assay: co-IP; Smc1-TAP proteins immunoprecipitated from yeast protein extracts (cells grown under repressing conditions, YEP-D, physiological levels of Smc1 proteins); SDS-PAGE, immunoblots for Smc1-TAP, Mcd1-6HA and Smc3-12MYC.

No constants are given. Whether binding was seen depends on the method and setting. Binding seen in cells or lysates may run through a third protein. Some entries that bind do so weakly or less than the wild type. Tags and fused reporters may be left off the sequences shown.

B1: Smc3-12MYC (protein, UniProt P47037 1-1230)
chain: MYIKRVIIKGFKTYRNETIIDNFSPHQNVIIGSNGSGKSNFFAAIRFVLSDDYSNLKREERQGLIHQGSGGSVMSASVEIVFHDPDHSMILPSGVLSRGDDEVTIRRTVGLKKDDYQLNDRNVTKGDIVRMLETAGFSMNNPYNIVPQGKIVALTNAKDKERLQLLEDVVGAKSFEVKLKASLKKMEETEQKKIQINKEMGELNSKLSEMEQERKELEKYNELERNRKIYQFTLYDRELNEVINQMERLDGDYNNTVYSSEQYIQELDKREDMIDQVSKKLSSIEASLKIKNATDLQQAKLRESEISQKLTNVNVKIKDVQQQIESNEEQRNLDSATLKEIKSIIEQRKQKLSKILPRYQELTKEEAMYKLQLASLQQKQRDLILKKGEYARFKSKDERDTWIHSEIEELKSSIQNLNELESQLQMDRTSLRKQYSAIDEEIEELIDSINGPDTKGQLEDFDSELIHLKQKLSESLDTRKELWRKEQKLQTVLETLLSDVNQNQRNVNETMSRSLANGIINVKEITEKLKISPESVFGTLGELIKVNDKYKTCAEVIGGNSLFHIVVDTEETATLIMNELYRMKGGRVTFIPLNRLSLDSDVKFPSNTTTQIQFTPLIKKIKYEPRFEKAVKHVFGKTIVVKDLGQGLKLAKKHKLNAITLDGDRADKRGVLTGGYLDQHKRTRLESLKNLNESRSQHKKILEELDFVRNELNDIDTKIDQVNGNIRKVSNDRESVLTNIEVYRTSLNTKKNEKLILEESLNAIILKLEKLNTNRTFAQEKLNTFENDLLQEFDSELSKEEKERLESLTKEISAAHNKLNITSDALEGITTTIDSLNAELESKLIPQENDLESKMSEVGDAFIFGLQDELKELQLEKESVEKQHENAVLELGTVQREIESLIAEETNNKKLLEKANNQQRLLLKKLDNFQKSVEKTMIKKTTLVTRREELQQRIREIGLLPEDALVNDFSDITSDQLLQRLNDMNTEISGLKNVNKRAFENFKKFNERRKDLAERASELDESKDSIQDLIVKLKQQKVNAVDSTFQKVSENFEAVFERLVPRGTAKLIIHRKNDNANDHDESIDVDMDAESNESQNGKDSEIMYTGVSISVSFNSKQNEQLHVEQLSGGQKTVCAIALILAIQMVDPASFYLFDEIDAALDKQYRTAVATLLKELSKNAQFICTTFRTDMLQVADKFFRVKYENKISTVIEVNREEAIGFIRGSNKFAEV
As for B1, the binding result was “binds”.

The record behind these values is article PMC1779304.
